From publication PMC3857783, “Human Fanconi Anemia Complementation Group A Protein Stimulates the 5’ Flap Endonuclease Activity of FEN1” (PLoS ONE, 2013)
Results are given in words; binding and its absence hold for the method and conditions named. Binding seen in cells or lysates may run through a third protein. Some entries that bind do so weakly or less than the wild type. Where a sequence is shown, tags or fusion partners need not be part of it. Values belong to the molecule of their own block, whether it stands above or below them.

Chains of the proteins cited; added tags and fusions are not shown. Lines headed by an entry give the natural chain unless they say otherwise; changes in a name come on top.
UniProt P39748: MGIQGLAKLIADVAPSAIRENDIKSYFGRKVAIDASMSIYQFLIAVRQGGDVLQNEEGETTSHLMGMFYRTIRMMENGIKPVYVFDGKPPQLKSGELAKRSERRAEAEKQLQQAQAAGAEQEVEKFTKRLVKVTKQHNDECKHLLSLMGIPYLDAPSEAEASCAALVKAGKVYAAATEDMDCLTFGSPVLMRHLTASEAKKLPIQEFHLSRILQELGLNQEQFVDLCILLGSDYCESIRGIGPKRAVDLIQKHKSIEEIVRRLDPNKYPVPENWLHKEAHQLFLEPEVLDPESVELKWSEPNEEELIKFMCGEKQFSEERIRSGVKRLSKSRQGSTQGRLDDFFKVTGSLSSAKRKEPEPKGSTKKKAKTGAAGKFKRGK

Columns and labels:
[1] = target: T1, FLAG-FANCA (human Fanconi anemia complementation group A protein) (human) (UniProt O15360); assay: co-IP; reciprocal; whole-cell extracts of FANCA-null (RA3087) and FLAG-FANCA-complemented cells; 600 μg extract with mouse anti-FLAG M2 or rabbit anti-FEN1 antibody overnight at 4 °C in 50 mM Tris-HCl pH 7.6, 100 mM NaCl, 1 mM DTT, 50 μg/mL BSA; protein G magnetic beads; Western blot
T1 sequence: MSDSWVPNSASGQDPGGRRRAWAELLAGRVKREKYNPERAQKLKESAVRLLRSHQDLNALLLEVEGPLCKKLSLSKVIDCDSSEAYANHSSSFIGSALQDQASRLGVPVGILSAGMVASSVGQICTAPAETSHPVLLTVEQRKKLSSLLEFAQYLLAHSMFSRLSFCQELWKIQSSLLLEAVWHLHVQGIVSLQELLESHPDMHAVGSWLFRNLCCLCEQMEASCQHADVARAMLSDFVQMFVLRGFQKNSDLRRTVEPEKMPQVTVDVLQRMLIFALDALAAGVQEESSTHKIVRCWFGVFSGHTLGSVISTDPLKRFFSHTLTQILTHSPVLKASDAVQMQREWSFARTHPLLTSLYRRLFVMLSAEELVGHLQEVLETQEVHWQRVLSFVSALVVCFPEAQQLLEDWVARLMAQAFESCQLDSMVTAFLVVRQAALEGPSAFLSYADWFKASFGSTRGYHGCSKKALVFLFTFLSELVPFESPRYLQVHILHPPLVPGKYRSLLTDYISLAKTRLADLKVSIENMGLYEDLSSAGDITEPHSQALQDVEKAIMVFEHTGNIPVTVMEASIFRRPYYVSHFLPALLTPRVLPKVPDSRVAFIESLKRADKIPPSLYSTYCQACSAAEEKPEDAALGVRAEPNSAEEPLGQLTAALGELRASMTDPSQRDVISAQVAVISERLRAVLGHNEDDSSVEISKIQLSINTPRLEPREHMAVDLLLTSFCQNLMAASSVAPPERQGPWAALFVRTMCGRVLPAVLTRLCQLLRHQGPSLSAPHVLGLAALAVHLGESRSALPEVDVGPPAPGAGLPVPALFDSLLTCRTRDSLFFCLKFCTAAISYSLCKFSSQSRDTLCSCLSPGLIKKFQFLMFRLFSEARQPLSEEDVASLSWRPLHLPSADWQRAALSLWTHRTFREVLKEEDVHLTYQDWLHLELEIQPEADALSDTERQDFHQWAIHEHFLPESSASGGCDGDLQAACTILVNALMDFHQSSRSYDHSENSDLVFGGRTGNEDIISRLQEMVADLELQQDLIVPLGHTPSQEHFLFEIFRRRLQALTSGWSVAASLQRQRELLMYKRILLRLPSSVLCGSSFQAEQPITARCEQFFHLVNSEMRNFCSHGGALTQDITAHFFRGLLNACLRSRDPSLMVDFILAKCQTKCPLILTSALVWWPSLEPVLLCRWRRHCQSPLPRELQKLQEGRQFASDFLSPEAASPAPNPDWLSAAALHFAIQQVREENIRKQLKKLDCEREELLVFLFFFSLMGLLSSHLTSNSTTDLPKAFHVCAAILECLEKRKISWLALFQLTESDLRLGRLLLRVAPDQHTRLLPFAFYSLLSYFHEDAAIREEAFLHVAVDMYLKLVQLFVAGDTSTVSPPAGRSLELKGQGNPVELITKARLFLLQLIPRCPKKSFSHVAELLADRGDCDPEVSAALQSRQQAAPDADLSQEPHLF

[2] = target: Flap endonuclease 1 (FEN1) (human (endogenous in RA3087 cells)) (UniProt P39748); assay: as above

binding [1]: binds
Molecule: Flap endonuclease 1 (FEN1) (from UniProt P39748-1 1-380) (enzyme)

binding [2]: binds
B1: FLAG-FANCA (human Fanconi anemia complementation group A protein) (natural protein, UniProt O15360-1 1-1455, looked up)
chain: T1 sequence
